From patent publication US9340584
These are yes or no findings as the source states them, for the method shown. Some binding calls cover weakened binding; strength is not graded here. Values belong to the binder of their own block, whether it stands above or below them.

Biological target: T1, EpCam (recombinant target protein of Table 9) (UniProt P16422)
T1 sequence (biotinylated with BirA + ATP + Biotin, looked up): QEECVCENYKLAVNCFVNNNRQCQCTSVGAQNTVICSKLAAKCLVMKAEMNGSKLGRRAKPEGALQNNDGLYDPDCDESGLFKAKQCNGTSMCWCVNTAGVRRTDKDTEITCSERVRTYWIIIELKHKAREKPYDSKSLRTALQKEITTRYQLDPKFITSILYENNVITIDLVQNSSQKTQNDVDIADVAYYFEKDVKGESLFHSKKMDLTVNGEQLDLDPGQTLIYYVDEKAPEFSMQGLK
Assay: phage display selection from TRX-3 library

- binding: binds
B1: EpCAM binder F12 (TRX-3 library) (designed binder)
chain: MVKQIESKTAFQEALDAAGDKLVVVDFSATRGPWSGPSKMIKPFFHSLSEKYSNVIFLEVDVDDAQDVASEAFHASFVPLRPTFQFFKKGQKVGEFSGANKEKLEATINELV

- binding: binds
B2: EpCAM binder A4 (TRX-3 library) (designed binder)
chain: MVKQIESKTAFQEALDAAGDKLVVVDFSATTRDWNRDVNWSGPSKMIKPFFHSLSEKYSNVIFLEVDVDDAQDVASEAQLTLSIPFRPTFQFFKKGQKVGEFSGANKEKLEATINELV

- binding: binds
B3: EpCAM binder A11 (TRX-3 library) (designed binder)
chain: MVKQIESKTAFQEALDAAGDKLVVVDFSATGCVRTMARRWSGPSKMIKPFFHSLSEKYSNVIFLEVDVDDAQDVASEAMSSNKYICFPTFQFFKKGQKVGEFSGANKEKLEATINELV

- binding: binds
B4: EpCAM binder A2 (TRX-3 library) (designed binder)
chain: MVKQIESKTAFQEALDAAGDKLVVVDFSATCGRYEEGRRWSGPSKMIKPFFHSLSEKYSNVIFLEVDVDDAQDVASEALPLVYFCPYPTFQFFKKGQKVGEFSGANKEKLEATINELV

- binding: binds
B5: EpCAM binder E4 (TRX-3 library) (designed binder)
chain: MVKQIESKTAFQEALDAAGDKLVVVDFSATCVVTTGDSKWSGPSKMIKPFFHSLSEKYSNVIFLEVDVDDAQDVASEATRELLPYCWPTFQFFKKGQKVGEFSGANKEKLEATINELV

- binding: binds
B6: EpCAM binder E7 (TRX-3 library) (designed binder)
chain: MVKQIESKTAFQEALDAAGDKLVVVDFSATGSSPESRVHWSGPSKMIKPFFHSLSEKYSNVIFLEVDVDDAQDVASEAACKHRVCFFPTFQFFKKGQKVGEFSGANKEKLEATINELV

- binding: binds
B7: EpCAM binder C9 (TRX-3 library) (designed binder)
chain: MVKQIESKTAFQEALDAAGDKLVVVDFSATSEANGEEWSGPSKMIKPFFHSLSEKYSNVIFLEVDVDDAQDVASEALRVWSIPERPTFQFFKKGQKVGEFSGANKEKLEATINELV

- binding: binds
B8: EpCAM binder E5 (TRX-3 library) (designed binder)
chain: MVKQIESKTAFQEALDAAGDKLVVVDFSATYRTHTNEIRWSGPSKMIKPFFHSLSEKYSNVIFLEVDVDDAQDVASEARFLTLRSSSPTFQFFKKGQKVGEFSGANKEKLEATINELV

- binding: binds
B9: EpCAM binder F6 (TRX-3 library) (designed binder)
chain: MVKQIESKTAFQEALDAAGDKLVVVDFSATGQNRKRTEDWSGPSKMIKPFFHSLSEKYSNVIFLEVDVDDAQDVASEAAILISLPERPTFQFFKKGQKVGEFSGANKEKLEATINELV

- binding: binds
B10: EpCAM binder E10 (TRX-3 library) (designed binder)
chain: MVKQIESKTAFQEALDAAGDKLVVVDFSATQHKPWSGPSKMIKPFFHSLSEKYSNVIFLEVDVDDAQDVASEASYVYALPRRPTFQFFKKGQKVGEFSGANKEKLEATINELV

- binding: binds
B11: EpCAM binder E6 (TRX-3 library) (designed binder)
chain: MVKQIESKTAFQEALDAAGDKLVVVDFSATSRQGGICSRWSGPSKMIKPFFHSLSEKYSNVIFLEVDVDDAQDVASEARISLWCAWTPTFQFFKKGQKVGEFSGANKEKLEATINELV

- binding: binds
B12: EpCAM binder A6 (TRX-3 library) (designed binder)
chain: MVKQIESKTAFQEALDAAGDKLVVVDFSATNRNGEKHAHWSGPSKMIKPFFHSLSEKYSNVIFLEVDVDDAQDVASEAGLLWSIPFRPTFQFFKKGQKVGEFSGANKEKLEATINELV

- binding: binds
B13: EpCAM binder G6 (TRX-3 library) (designed binder)
chain: MVKQIESKTAFQEALDAAGDKLVVVDFSATHTNESRDGNWSGPSKMIKPFFHSLSEKYSNVIFLEVDVDDAQDVASEAELIWSLPERPTFQFFKKGQKVGEFSGANKEKLEATINELV
